Reference: publication PMC6044906
These are yes or no findings as the source states them, for the method shown. In cells and extracts the contact can be indirect. A yes stands for co-enrichment or nearness to the bait. Other partners may have been found. A no says only that the protein was not detected with the bait.

Target: ZMYND10 (mouse (endogenous in testes and oviduct))
Experiment: affinity purification with mass spectrometry; endogenous ZMYND10 precipitated from P30 mouse testes extracts with two polyclonal antibodies (Sigma, Proteintech), on-bead digestion, label-free quantification against IgG controls, CRAPome filter

binding: no binding
B1: LRRC6 (protein, UniProt O88978 1-473)
chain: MGRITEDLIRRNAEHNDCVIFSLEELSLHQQEIERLEHIDKWCRDLKILYLQNNLIGKIENVSKLKKLEYLNLALNNIERIENLEGCEWLTKLDLTVNFIGELSSVKTLTHNIHLKELFLMGNPCADFDGYRQFVVVTLQQLKWLDGKEIERSERIQALQNYTSVEQQIREQEKAYCLRRAKEKEEAQRKLEEENESEDKKKSSTGFDGHWYTDIHTACPSATENQDYPQVPETQEEQHNTKESDDIEDDLAFWNKPSLFTPESRLETLRHMEKQRKAQDKLSEKKKKAKPPRTLITEDGKVLNVNEAKLDFSLKDDEKHNQIILDLAVYRYMDTSLIEVDVQPTYVRVMVKGKPFQLALSTEVQPDRSSAKRSQTTGHLLICMPKVGEMITGGQRTPTSVKTTSTSSREQTNPRKKQIERLEVDPSKHSCPDVSTIVQEKRHRPKRMESQPRDEPSEEDPDFEDNPEVPPLI
